The values that follow come from patent publication US5446157A, “Boron difluoride compounds useful in photodynamic therapy and production of laser light” (priority 1993, dated 1995).

Structures are written as SMILES. Counter-ions that a name gives are not always drawn.

A short description of series [1]: P-BF2 dyes dispersed in acrylic co-polymer (solid-state laser). The settings on record: polymer matrix, 5 parts methyl methacrylate and 1 part hydroxypropyl acrylate; PMDEP-BF2 10^-4 M. The text has this:
Any laser dye of the present invention may be substituted for the dye in any of the examples of that incorporated patent. The matrix generally includes solid polymeric host laser rods prepared using bulk polymerization of acrylic acid ester comonomers.

The conditions of series [2]: 2 × 10^-4 M in ethanol; Ref [2] / Shah et al. 1990; cited from earlier work.
Series [3] is described as follows: Power efficiency in Candela flashlamp dye laser.
The nature of series [4]: Continuous wave operation with argon ion pump laser: power efficiency. Particulars: CW, 5 watts all lines 457.9-514.5 nm.
A short description of series [5]: Laser characteristics of pyrromethene-BF2 complexes under flashlamp excitation (Table IV). Particulars: DMA/MeOH.
Series [6] can be described thus: Use as laser dye: lasing threshold and wavelength range in 10 mm flashlamp D-1100 dye laser (Phas-R Model D-1100). The settings on record: 60 mg in 230 ml of H2O.

`CCC1=C(C)C2=C(C)c3c(C)c(CC)c(C)n3[B-](F)(F)[N+]2=C1C` [Compound 7c, 1,3,5,7,8-pentamethyl-2,6-diethylpyrromethene-BF2 complex] yielded a power efficiency in series [1] of 88%. Further, the λlas in series [2] is listed as 570 nm. The “power efficiency of R-6G (relative)” value in series [3] (Candela LFRDL 20 linear flashlamp dye laser) was 173%. Moreover, the “power efficiency / power output” value in series [4] was found to be 37%.

Regarding `CC1=C(S(=O)(=O)O)C(C)=[N+]2C1=C(C)c1c(C)c(S(=O)(=O)O)c(C)n1[B-]2(F)F` [PMPDS-BF2, Disodium salt of 4,4-difluoro-1,3,5,7,8-pentamethyl-4-bora-3a,4a-diaza-s-indacene-2,6-disulfonic acid monohydrate], the “power efficiency obtained from R-6G (relative)” value in series [3] (Candela LFDL-8 laser, flashlamp, pulsewidth 2 μsec, risetime 0.7 μsec) is 145%. This compound also gave a Vth in series [5] of 10 kV. Moreover, the “Eo (V = 18 kV)” value in series [5] (V = 18 kV) was found to be 80 mJ. The compound also yielded a λL in series [5] (conc. × 10^4 M: I 1.5, II 2, III 2, Rhodamine 590 0.5) of 555 nm. Besides, in series [6], the lasing threshold was 10 kV and the lasing wavelength range was 545-585 nm. For the same compound, the “power efficiency / power output” value in series [4] is given as 45%.

In the case of `CCN(CC)c1ccc2c(-c3ccc(S(=O)(=O)O)cc3S(=O)(=O)[O-])c3ccc(=[N+](CC)CC)cc-3oc2c1` [sulforhodamine-B, reference compound], the power efficiency in series [1] is 37%.
